Test results: PubChem BioAssay AID504834 (National Center for Advancing Translational Sciences (NCATS), 2011)
Hit rate of the full screen: of about 320,000 compounds, about 22,000 (6.9%) were called active. The inconclusive results got no clear call from the source; some entries with a clear call stand among them for comparison. Calls come from the whole dose curve; as a rule, active = well fitted inhibition curve with a large enough effect; inconclusive = small, poorly fitted or top-dose-only effect, or another doubt; inactive = no such curve, though single readings can be large or run the other way. Where the call is inconclusive, the potency comes from a doubtful curve fit.
% is set by controls: 0 for no effect and ±100 for the full control effect; potency is the fitted concentration of half-maximal effect.

Test: Primary qHTS for delayed death inhibitors of the malarial parasite plastid, 96 hour incubation
Conditions: P. falciparum luciferase reporter growth; series mostly up to 28.7 µM; activity change, negative = inhibition: at the top concentration
Summary of the method: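 Plates of compound plus infected erythrocytes (2% hematocrit, 0.05% parasitemia final) incubate 96 hours, 37 C, 5% CO2. Detection reagent added; reduced luminescence from the parasites' luciferase reporter flags inhibition.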
With COC1=C(Nc2ccc(O)cc2)C(=O)c2ccccc2C1=O the Potency was active: 11.7 µM.
In the case of CC(C)C(OC(=O)c1ccco1)C(=O)NC1CCCCC1 (stereo unspecified), the Potency is reported as inconclusive: 7.38 µM [inhibitor, partial curve, poor fit].
With COc1ccc(-c2nnc3n2CCCCC3)cc1 the “activity change, negative = inhibition” value was inactive: 32.2%.
With CCCC1=NN2C(=N)/C(=C\c3cc(C)n(-c4cc(C)cc(C)c4)c3C)C(=O)N=C2S1 the Potency was inconclusive: 10.4 µM [inhibitor, single point].
With CCOc1ccc(NC(=O)CN(C)C(=O)c2cn(-c3ccccc3)nc2-c2cccs2)cc1OCC the Potency was inconclusive: 11.7 µM [inhibitor, single point].
For COc1ccc(-c2cc3nc(CCl)[nH]c(=O)c3s2)cc1, the Potency was inconclusive: 14.7 µM [inhibitor, single point].
For CC(C)(C)NC(=O)C(c1ccccn1)N(C(=O)c1csnn1)C1CCCC1 (stereo unspecified), the “activity change, negative = inhibition” value was inactive: -15.1%.
For O=C(COC(=O)c1cccs1)NCc1ccccc1, the Potency was inconclusive: 0.0522 µM [inhibitor, full curve, poor fit].
In the case of O=C(COc1ccccc1)NCc1nnc(SCC(=O)Nc2nccs2)n1-c1ccccc1, the Potency is reported as inconclusive: 18.5 µM [inhibitor, single point].
With CCCOc1cccc(-c2nn(-c3ccccc3)cc2/C=C(\C#N)C(=O)NCCCn2ccnc2)c1 the Potency was active: 10.4 µM.
In the case of CCOC(=O)N1CCN(C(=O)c2ccc3c(c2)NC(=O)/C(=C\c2ccc(OC)c(OC)c2)S3)CC1, the Potency is reported as active: 13.1 µM.
In the case of O=Cc1ccc(Cl)c(Cl)c1, the “activity change, negative = inhibition” value is reported as inactive: 41.1%.
For COc1ccccc1N(CC(O)Cn1nc(C)cc1C)S(=O)(=O)c1ccccc1 (stereo unspecified), the Potency was inconclusive: 14.7 µM [inhibitor, partial curve, poor fit].
For CCc1nnc(NC(=O)C2CC(=O)N(c3ccc4c(c3)OCCO4)C2)s1 (stereo unspecified), the Potency was inconclusive: 9.28 µM [inhibitor, single point].
With CCc1ccc(S(=O)(=O)/N=C2\C=C(Nc3ccc(C(=O)O)cc3)C(=O)c3ccccc32)cc1 the Potency was active: 3.7 µM.
For CC(=O)N(C)c1ccc(NC(=O)Nc2cccc3ccccc23)cc1, the Potency was inconclusive: 5.86 µM [inhibitor, partial curve, poor fit].
With CN(CCc1ccccn1)C(=O)CC1C(=O)NCCN1Cc1ccc(-c2ccccc2)cc1 (stereo unspecified) the Potency was active: 11.7 µM.
For Cc1ccc(C)c(Cn2nnc3c(=O)[nH]c(C(=O)NCc4ccco4)nc32)c1, the Potency was inconclusive: 18.5 µM [inhibitor, single point].
With CC(=O)Nc1nc2n(n1)C(c1ccccc1)C=C(c1ccccc1)N2 (stereo unspecified) the Potency was active: 5.22 µM.
For COc1cccc(C(=O)/C=C/Nc2ccc(S(=O)(=O)Nc3ncccn3)cc2)c1, the Potency was inconclusive: 2.94 µM [inhibitor, full curve].
In the case of Oc1ccc2ccccc2c1C=NC12CN3CCN(CN(C3)C1)C2, the Potency is reported as inconclusive: 18.5 µM [inhibitor, single point].
With CCc1ccc(Oc2coc3cc(O)ccc3c2=O)cc1 the Potency was inconclusive: 13.1 µM [inhibitor, partial curve, poor fit].
With COc1cc(Cl)ccc1OCc1cc(C(=O)N2CCCCC2c2cccnc2)no1 (stereo unspecified) the Potency was inconclusive: 10.4 µM [inhibitor, single point].
In the case of CCCc1cc(=O)oc2cc(OC(C)C(=O)NCc3ccccn3)c(Cl)cc12 (stereo unspecified), the Potency is reported as active: 10.4 µM.
For CN(Cc1ccccc1Cl)C(=O)C1CCC(=O)N(CCc2cccc(F)c2)C1 (stereo unspecified), the Potency was inconclusive: 7.38 µM [inhibitor, partial curve].
For NS(=O)(=O)c1ccc(N2CCN(CCOc3ccc(Cl)cc3)CC2)nc1, the “activity change, negative = inhibition” value was inactive: -18.1%.
For Clc1ccc(-c2ncc3ccccn23)cc1, the Potency was inconclusive: 5.86 µM [inhibitor, partial curve].
For CCN(CC)S(=O)(=O)c1cccc(C(=O)N2CCCCC2)c1, the Potency was inconclusive: 11.7 µM [inhibitor, single point].
In the case of CCCCC(=O)Nc1cccc(NC(=O)CC)c1, the “activity change, negative = inhibition” value is reported as inactive: -9.02%.
For COc1ccc(CCn2c(C)cc(C(=O)CSc3nnc(N)s3)c2C)cc1, the Potency was active: 9.28 µM.
In the case of O=C(NCc1ccccn1)C1C2C=CC(C2)C1C(=O)Nc1ccc(F)cc1 (stereo unspecified), the “activity change, negative = inhibition” value is reported as inactive: 23%.
For CCN(CC)c1nc(N)nc(NS(=O)(=O)c2ccc(Cl)cc2)n1, the Potency was inconclusive: 11.7 µM [inhibitor, partial curve, poor fit].
For CN(C)c1ccc(/C=N/N=C2/SC(CC(=O)O)C(=O)N2c2ccc(O)cc2)cc1 (stereo unspecified), the Potency was inconclusive: 18.5 µM [inhibitor, single point].
For CC(C)CN1CCC(=O)N(CCC#N)CC1, the “activity change, negative = inhibition” value was inactive: 3.54%.
With CN1C(=O)C2(N=c3ccccc3=N2)c2ccccc21 the “activity change, negative = inhibition” value was inactive: 8.84%.
In the case of CCCC(=O)Nc1nnc(CCc2ccccc2)s1, the Potency is reported as inconclusive: 18.5 µM [inhibitor, single point].
For Cc1nc(N2CCN(C(=O)c3ccco3)CC2)nc2c1C(=O)CCC2, the Potency was inconclusive: 18.5 µM [inhibitor, single point].
With COc1ccc(OCC(=O)Nc2ccccc2C(=O)N2CCOCC2)cc1 the Potency was inconclusive: 13.1 µM [inhibitor, partial curve, poor fit].
For CC(C)C[C@H](NC(=O)[C@@H]1O[C@H]1C(=O)O)C(=O)NCCCCN=C(N)N, the Potency was active: 3.29 µM.
For COc1cccc(-c2c(-c3cc(OC)cc(OC)c3)n(C)c3ccc(-c4cccc5[nH]ccc45)cc23)c1, the Potency was inconclusive: 1.31 µM [inhibitor, partial curve, poor fit].
For Cc1nn2c(C)c(C(=O)Nc3ccccc3)cnc2c1-c1ccccc1, the Potency was inconclusive: 0.117 µM [inhibitor, full curve, poor fit].
With COc1ccc(N(C(=O)C2CCCCC2)C2C=CS(=O)(=O)C2)c(OC)c1 (stereo unspecified) the “activity change, negative = inhibition” value was inactive: 11.2%.
With Cc1cc([N+](=O)[O-])ccc1-c1ccc(/C=N/NC(=O)Cc2ccccc2)o1 the “activity change, negative = inhibition” value was inactive: -36.8%.
With O=C(Nc1cccnc1)OC1CCCC1 the “activity change, negative = inhibition” value was inactive: 29.8%.
For CCOc1cc(/C=N/NC(=O)C2CC2)ccc1OC(C)C, the Potency was inconclusive: 16.5 µM [inhibitor, single point].
With COCCNC(=O)CSC1=N/C(=C/c2ccc(Cl)c(Cl)c2)C(=O)N1c1ccccc1F the Potency was inconclusive: 18.5 µM [inhibitor, single point].
